From PMC7392026
No constants are given. Whether binding was seen depends on the method and setting. Binding seen in cells or lysates may run through a third protein. Some binding calls cover weakened binding; strength is not graded here.

Amino acid sequences for entries named in this document (tags omitted). Residues count along the entry.
UniProt Q01995: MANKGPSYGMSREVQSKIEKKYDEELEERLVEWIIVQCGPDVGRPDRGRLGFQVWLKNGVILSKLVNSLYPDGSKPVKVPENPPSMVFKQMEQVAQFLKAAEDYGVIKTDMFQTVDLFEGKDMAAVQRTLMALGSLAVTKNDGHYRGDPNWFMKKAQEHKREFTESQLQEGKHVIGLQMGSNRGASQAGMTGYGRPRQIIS
UniProt P49747, residues 21-757: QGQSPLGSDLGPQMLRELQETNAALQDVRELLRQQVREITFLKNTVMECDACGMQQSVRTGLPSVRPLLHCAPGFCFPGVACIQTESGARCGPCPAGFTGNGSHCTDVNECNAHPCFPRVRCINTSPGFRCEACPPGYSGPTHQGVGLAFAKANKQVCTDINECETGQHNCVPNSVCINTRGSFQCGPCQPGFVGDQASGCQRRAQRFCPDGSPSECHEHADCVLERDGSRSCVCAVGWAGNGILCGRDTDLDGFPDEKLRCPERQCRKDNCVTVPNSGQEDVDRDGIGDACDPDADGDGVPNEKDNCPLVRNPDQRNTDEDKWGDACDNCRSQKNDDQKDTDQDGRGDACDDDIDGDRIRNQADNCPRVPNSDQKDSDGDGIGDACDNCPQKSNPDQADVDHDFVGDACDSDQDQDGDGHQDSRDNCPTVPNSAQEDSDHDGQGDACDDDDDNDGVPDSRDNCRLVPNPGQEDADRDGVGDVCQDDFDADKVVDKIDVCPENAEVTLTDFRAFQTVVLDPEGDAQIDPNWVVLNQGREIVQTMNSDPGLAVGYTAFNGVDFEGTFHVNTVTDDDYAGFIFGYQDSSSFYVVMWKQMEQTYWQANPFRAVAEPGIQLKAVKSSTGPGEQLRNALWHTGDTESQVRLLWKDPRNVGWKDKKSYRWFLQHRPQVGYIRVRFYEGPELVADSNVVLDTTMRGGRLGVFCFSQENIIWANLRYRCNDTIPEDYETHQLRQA

Assays:
[1] = biological target: Transgelin (human (endogenous in HCT116)) (UniProt Q01995); assay: co-IP; HCT116 cell lysate in 0.3% Nonidet P-40 lysis buffer with protease inhibitors; control or specific antibodies on protein A/G agarose, 4 °C, 12 h; washed five times with 0.1% Nonidet P-40 buffer; Western blot for COMP and TAGLN
[2] = biological target: Transgelin (human (endogenous in HCT116)) (UniProt Q01995); assay: proximity ligation; Duolink PLA in colorectal cancer cells with primary antibodies (1:100) and two PLA probes; DAPI staining, confocal microscopy
[3] = biological target: Cartilage oligomeric matrix protein (human (endogenous in HCT116)) (UniProt P49747); assay: co-IP; HCT116 cell lysate in 0.3% Nonidet P-40 lysis buffer with protease inhibitors; control or specific antibodies on protein A/G agarose, 4 °C, 12 h; washed five times with 0.1% Nonidet P-40 buffer; Western blot for COMP and TAGLN

binding [1] | binding [2] | binding [3] | Substance
binds | binds | – | Cartilage oligomeric matrix protein (from UniProt P49747 21-757)
– | – | binds | Transgelin (from UniProt Q01995 1-201)
